Values from PubChem BioAssay AID720505 (Drosophila RNAi Screening Center, 2013).
The deposit covers about 20,000 reagents; this is a random part of those with a known target gene and a result. Of all reagents, about 2,100 (10%) are marked active. 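Raw plate signals without normalisation; calls rest on control-based scores that were not deposited; replicate 2 separates called from uncalled poorly.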 A number with no mark means an inactive call. Names joined by + are all predicted targets of the reagent. The record does not give: the amount of reagent, the time to read-out.

Purpose: 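Knock-downs that reduce calcium influx once internal stores are emptied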 (primary screen)
Cells: Drosophila S2R+ cells
Reagent: long dsRNA against Drosophila genes
Treatment: thapsigargin (2 µM) in calcium-free buffer to empty internal stores, then 2 mM calcium added back
Detection: 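Fluo-4 signal in 384-well plates read on a FLIPR after thapsigargin (2 µM, calcium-free) store depletion and 2 mM calcium add-back; unnormalised mean endpoint per well; screen run twice, selected wells retested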
Direction: calcium signal and retest calcium signal: higher = more calcium entry after store depletion
Rule for the call: 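Knock-downs counted as hits when calcium entry dropped relative to STIM1 positive and Rho1 negative controls present on each plate; roughly 1500 genes called, with reductions of differing size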
Meaning of the calls: active = called as lowering calcium entry; inactive = not called

no.	gene	PubChem SID	calcium signal, replicate 1	calcium signal, replicate 2	retest calcium signal, replicate 1	retest calcium signal, replicate 2
1	Or92a (GeneID 42425)	SID104196563	179	129		
2	Hr51 (GeneID 36702)	SID104186419	96.5	195		
3	Hr51 (GeneID 36702)	SID104202188	112	104		
4	Mur82C (GeneID 40574)	SID104192004	113	127	115	79.5
5	Prosap (GeneID 50225)	SID104186174	120	188		
6	Prosap (GeneID 50225)	SID104186873	255	158		
7	TTLL5 (GeneID 43015)	SID104193973	210	185		
8	CG32152 (GeneID 317885)	SID104202265	117	224		
9	CG4598 (GeneID 34315)	SID104182555	167	179		
10	cal1 (GeneID 42065)	SID104195517	151	224		
11	LRR (GeneID 35715)	SID104186236	112	138		
12	betaNACtes2 (GeneID 32386)	SID104199584	115	122		
13	CG13989 (GeneID 33869)	SID104182113	68.1 (active)	177		
14	Acp26Ab (GeneID 33816)	SID104181648	176	93.8		
15	CG32302 (GeneID 38293)	SID104188132	69.5	119		
16	CG30460 (GeneID 36924)	SID104186351	109	140		
17	CG30460 (GeneID 36924)	SID104186352	62.1 (active)	94.7		
18	CG30460 (GeneID 36924)	SID104202472	99.7	149		
19	lama (GeneID 38610)	SID104191153	110	104		
20	ATPsynGL (GeneID 34054)	SID104182819	71.4 (active)	79.5		
21	CG34459 (GeneID 5740101)	SID104186765	114	112		
22	CG34376 (GeneID 42638)	SID104194487	175	141		
23	CG34376 (GeneID 42638)	SID104194488	131	157		
24	CG34376 (GeneID 42638)	SID104194493	179	164		
25	OtopLc (GeneID 7354434)	SID104197874	164	140		
26	OtopLc (GeneID 7354434)	SID104197875	65.7 (active)	229		
27	OtopLc (GeneID 7354434)	SID104197924	179	109		
28	wake (GeneID 42676)	SID104195940	132	105		
29	wake (GeneID 42676)	SID104195941	133	99.5		
30	CG11710 (GeneID 33044)	SID104200277	154	92.8		
31	RpS15Ab + RpS15Aa	SID104185921	120	150		
32	RpS15Ab + RpS15Aa	SID104199623	70.6 (active)	74.3		
33	CG12659 (GeneID 50403)	SID104197654	234	99.3		
34	CG13488 (GeneID 37496)	SID104183925	195	120		
35	Sse (GeneID 38640)	SID104189538	57.1 (active)	72.9		
36	CG6178 (GeneID 42867)	SID104195776	152	177		
37	tx (GeneID 43190)	SID104196723	111	103		
38	CG11034 (GeneID 33810)	SID104181913	135	141		
39	CG11034 (GeneID 33810)	SID104181914	172	101		
40	CG6984 (GeneID 36926)	SID104186805	92.3	120		
41	CG31675 (GeneID 318879)	SID104181617	98.7	7741		
42	cmpy (GeneID 40288)	SID104191493	104	96.5		
43	Snx17 (GeneID 34354)	SID104182676	116	117		
44	asrij (GeneID 37637)	SID104183967	167	228		
45	Tpc1 (GeneID 41316)	SID104195406	163	106		
46	Tpc1 (GeneID 41316)	SID104195866	101	143		
47	CrzR (GeneID 39409)	SID104189573	151	106		
48	CrzR (GeneID 39409)	SID104189574	122	105		
49	tty (GeneID 33109)	SID104200380	138	107		
50	hay (GeneID 39202)	SID104191146	81.6	74.6		
51	Tpr2 (GeneID 34984)	SID104183253	93.1	118		
52	CG10862 (GeneID 38437)	SID104187962	112	127		
53	CG34429 (GeneID 5740606)	SID104189912	79.9	132		
54	Mgat4b (GeneID 39609)	SID104190048	122	143		
55	DCAF12 (GeneID 41460)	SID104195267	163	104		
56	CG12547 (GeneID 3355145)	SID104187551	55.3	146		

An excerpt of the results above:
no.	gene	PubChem SID	calcium signal, replicate 1	calcium signal, replicate 2	retest calcium signal, replicate 1	retest calcium signal, replicate 2
47	CrzR (GeneID 39409)	SID104189573	151	106		
48	CrzR (GeneID 39409)	SID104189574	122	105		
49	tty (GeneID 33109)	SID104200380	138	107		
50	hay (GeneID 39202)	SID104191146	81.6	74.6		
51	Tpr2 (GeneID 34984)	SID104183253	93.1	118		
52	CG10862 (GeneID 38437)	SID104187962	112	127		
